# The list is a part of this screen's results and no random one: it gathers tests that were run many times, whatever their T/C, doses with no T/C, and many T/C values between a quarter and a half above the control. Other doses and runs of a compound stand elsewhere. T/C: endpoint of the treated group in % of that of the vehicle group. Schedules are NCI's codes, read here as Q, the interval in days (D) or hours (H), X, the number of doses. Some entries were tested several times; the results are listed from low to high. Marks such as (2×) give the number of equal values in this list. Some entries give survivors of the animals treated and no T/C: the source files T/C as zero there, which appears to mark a toxic dose or a test without result, not a measured value. Some survivor counts are full or nearly so, which does not show that the dose was tolerated: survival well below the control is almost never listed, so the zero probably covers shortened survival too. Survivors were counted at the toxicity check, usually on the fifth day, unless a day is given; later deaths do not show. Where survival is the endpoint, this PubChem deposit counts one and a half times the control or more as active, and values a quarter to a half above the control carry no call in these data; other NCI protocols may use other cut-offs. Some T/C values are followed by the survivors on the day toxicity was checked, most often the fifth; where none is given, no animal had died by that day.
# Test system: BDF1 mice, s.c. Lewis lung carcinoma, T/C %
# Assay: NCI In Vivo Anticancer Drug Screen. Data for tumor model Lewis Lung Carcinoma (subcutaneous) in B6D2F1 (BDF1) mice
# How it was run: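 Transplanted tumors grown in mice; compound vs vehicle dosing; endpoint survival or tumor size; ratio T/C.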
# [1] = T/C endpoint: median survival time, dose: 25.0 mg/kg/injection, schedule: Q01DX009 (ip), vehicle: saline with Tween-80, higher T/C = longer survival
# [2] = T/C endpoint: mean tumor weight, dose: 100.0 mg/kg/injection, schedule: Q01DX011 (ip), vehicle: carboxymethylcellulose (CMC), higher T/C = larger tumour
# [3] = T/C endpoint: mean tumor weight, dose: 200.0 mg/kg/injection, schedule: Q01DX011 (ip), vehicle: carboxymethylcellulose (CMC), higher T/C = larger tumour
# [4] = T/C endpoint: median survival time, dose: 400.0 mg/kg/injection, schedule: Q01DX009 (ip), vehicle: saline, higher T/C = longer survival
compound,measurement,setting,value
O=C1C=CC(=Nc2ccc(O)c3ncccc23)c2cccnc21,survivor count,"T/C endpoint: mean tumor weight, dose: 100.0 mg/kg/injection, schedule: Q01DX011 (ip), vehicle: saline, higher T/C = larger tumour",0 of 6
same,survivor count,"T/C endpoint: mean tumor weight, dose: 200.0 mg/kg/injection, schedule: Q01DX011 (ip), vehicle: saline, higher T/C = larger tumour",0 of 6
Cc1cc(N(CC(C)Br)CC(C)Br)ccc1N=Nc1ccccc1C(=O)O (configuration not stated),survivor count,"T/C endpoint: median survival time, dose: 12.5 mg/kg/injection, schedule: Q01DX009 (ip), vehicle: saline with Tween-80, higher T/C = longer survival",10 of 10
same,survivor count,[1],7 of 10
CNc1nc(N(C)C)nc(N(C)C)n1,T/C,"T/C endpoint: median survival time, dose: 100.0 mg/kg/injection, schedule: Q04DX003 (ip), vehicle: water, higher T/C = longer survival",126 % of control
same,survivor count,"T/C endpoint: median survival time, dose: 150.0 mg/kg/injection, schedule: Q01DX009 (ip), vehicle: water, higher T/C = longer survival",10 of 10
same,T/C,"T/C endpoint: median survival time, dose: 150.0 mg/kg/injection, schedule: Q04DX003 (ip), vehicle: water, higher T/C = longer survival",128 % of control
same,T/C,"T/C endpoint: median survival time, dose: 225.0 mg/kg/injection, schedule: Q04DX003 (ip), vehicle: water, higher T/C = longer survival",128 % of control [9 of 10 alive]
same,survivor count,"T/C endpoint: median survival time, dose: 335.0 mg/kg/injection, schedule: Q01DX001 (ip), vehicle: water, higher T/C = longer survival",7 of 10
same,survivor count,"T/C endpoint: median survival time, dose: 500.0 mg/kg/injection, schedule: Q01DX001 (ip), vehicle: water, higher T/C = longer survival",0 of 10
same,survivor count,"T/C endpoint: median survival time, dose: 750.0 mg/kg/injection, schedule: Q01DX001 (ip), vehicle: water, higher T/C = longer survival",0 of 10
CC(=O)[C@H]1CC[C@H]2[C@@H]3CC[C@@H]4CC(=O)CC[C@]4(C)[C@H]3[C@@H]3O[C@@H]3[C@]12C,survivor count,"T/C endpoint: mean tumor weight, dose: 500.0 mg/kg/injection, schedule: Q01DX011 (ip), vehicle: other, higher T/C = larger tumour",0 of 6
same,survivor count,"T/C endpoint: mean tumor weight, dose: 1000.0 mg/kg/injection, schedule: Q01DX011 (ip), vehicle: other, higher T/C = larger tumour",0 of 6
CC(C)CCSc1nc(N)nc2nc[nH]c12,survivor count,"T/C endpoint: mean tumor weight, dose: 450.0 mg/kg/injection, schedule: Q01DX011 (ip), vehicle: other, higher T/C = larger tumour",1 of 6
same,survivor count,"T/C endpoint: mean tumor weight, dose: 600.0 mg/kg/injection, schedule: Q01DX011 (ip), vehicle: other, higher T/C = larger tumour",0 of 6
C=C1C(=O)O[C@H]2C1[C@H](OC(=O)/C(C)=C\COC(C)=O)C[C@]1(CO1)[C@@H]1[C@H](O)[C@H]3O[C@@]3(C)[C@@H]12 (some centres not stated),survivor count,"T/C endpoint: median survival time, dose: 50.0 mg/kg/injection, schedule: Q01DX009 (ip), vehicle: other, higher T/C = longer survival",6 of 10
O=c1n(CCCl)c(=O)n(CCCl)c(=O)n1CCCl,T/C,"T/C endpoint: mean tumor weight, dose: 200.0 mg/kg/injection, schedule: Q01DX011 (ip), vehicle: other, evaluated on day 12, higher T/C = larger tumour",138 % of control
same,survivor count,"T/C endpoint: mean tumor weight, dose: 800.0 mg/kg/injection, schedule: Q01DX011 (ip), vehicle: other, higher T/C = larger tumour",0 of 6
COc1cc2c(c(OC)c1OC)-c1ccc(OC)c(=O)cc1[C@@H](NC(=O)CF)CC2,survivor count,"T/C endpoint: median survival time, dose: 0.37 mg/kg/injection, schedule: Q01DX009 (ip), vehicle: saline with Tween-80, higher T/C = longer survival",10 of 10
same,survivor count,"T/C endpoint: median survival time, dose: 0.75 mg/kg/injection, schedule: Q01DX009 (ip), vehicle: saline with Tween-80, higher T/C = longer survival",3 of 10
O=C(Nc1ccc(C2=NCCCN2)cc1)c1ccc(C(=O)Nc2ccc(C3=NCCCN3)cc2)cc1,survivor count,"T/C endpoint: mean tumor weight, dose: 4.0 mg/kg/injection, schedule: Q01DX011 (ip), vehicle: other, higher T/C = larger tumour",2 of 7
same,survivor count,"T/C endpoint: mean tumor weight, dose: 8.0 mg/kg/injection, schedule: Q01DX011 (ip), vehicle: other, higher T/C = larger tumour",0 of 7
same,survivor count,"T/C endpoint: mean tumor weight, dose: 16.0 mg/kg/injection, schedule: Q01DX011 (ip), vehicle: other, higher T/C = larger tumour",0 of 7
same,survivor count,"T/C endpoint: mean tumor weight, dose: 32.0 mg/kg/injection, schedule: Q01DX011 (ip), vehicle: other, higher T/C = larger tumour",0 of 7
N#Cc1ccc(S(N)(=O)=O)cc1,survivor count,"T/C endpoint: mean tumor weight, dose: 50.0 mg/kg/injection, schedule: Q01DX011 (ip), vehicle: carboxymethylcellulose (CMC), higher T/C = larger tumour",3 of 6
same,survivor count,[2],0 of 6
same,survivor count,[3],0 of 6
CC(C)n1c2c([n+](C)c1/C=C/c1ccccc1)C(=O)c1ccccc1C2=O,survivor count,"T/C endpoint: median survival time, dose: 2.0 mg/kg/injection, schedule: Q01DX009 (ip), vehicle: saline, higher T/C = longer survival",0 of 10
Nc1nc2[nH]c(=O)cnc2c(=O)[nH]1,survivor count,[1],10 of 10
same,survivor count,"T/C endpoint: median survival time, dose: 50.0 mg/kg/injection, schedule: Q01DX009 (ip), vehicle: saline, higher T/C = longer survival",10 of 10
CN1CCCC1c1cccnc1 (configuration not stated),survivor count,"T/C endpoint: mean tumor weight, dose: 8.0 mg/kg/injection, schedule: Q01DX011 (ip), vehicle: carboxymethylcellulose (CMC), higher T/C = larger tumour",3 of 6
C[C@]12CC[C@H](O)CC1=CC[C@@H]1[C@@H]2CC[C@]2(C)c3nc4ccccc4cc3C[C@@H]12,T/C,"T/C endpoint: mean tumor weight, dose: 15.0 mg/kg/injection, schedule: Q01DX011 (sc), vehicle: steroid suspending solution, evaluated on day 12, higher T/C = larger tumour",45 (2×) and 125 % of control (2×)
same,T/C,"T/C endpoint: mean tumor weight, dose: 30.0 mg/kg/injection, schedule: Q01DX011 (sc), vehicle: steroid suspending solution, evaluated on day 12, higher T/C = larger tumour",44 (2×) and 47 % of control (2×)
same,survivor count,"T/C endpoint: mean tumor weight, dose: 1000.0 mg/kg/injection, schedule: Q01DX011 (sc), vehicle: steroid suspending solution, higher T/C = larger tumour",3 of 7
CC(C)(c1ccccc1)c1ccc(O)cc1,survivor count,[2],2 of 6
same,survivor count,"T/C endpoint: mean tumor weight, dose: 150.0 mg/kg/injection, schedule: Q01DX011 (ip), vehicle: carboxymethylcellulose (CMC), higher T/C = larger tumour",0 of 6
O=NN(CCF)C(=O)NC1CCSc2ccccc21 (configuration not stated),survivor count,"T/C endpoint: median survival time, dose: 36.0 mg/kg/injection, schedule: Q01DX001 (ip), vehicle: saline with Tween-80, higher T/C = longer survival",7 of 8 on day 11
CC1(c2ccc(N(CCCl)CCCl)cc2)NC(=O)NC1=O (configuration not stated),survivor count,"T/C endpoint: median survival time, dose: 6.25 mg/kg/injection, schedule: Q01DX009 (ip), vehicle: Klucel (hydroxypropylcellulose) (HPC), higher T/C = longer survival",6 of 6
CNCc1ccccc1,T/C,"T/C endpoint: mean tumor weight, dose: 50.0 mg/kg/injection, schedule: Q01DX011 (ip), vehicle: carboxymethylcellulose (CMC), evaluated on day 12, higher T/C = larger tumour",137 % of control
same,survivor count,[2],3 of 6
same,survivor count,[3],0 of 6 and 1 of 6
CC/C(C)=C1\OC(=O)C(C)C(O)C(Cc2cccnc2)NC(=O)C(NC(=O)c2ncccc2O)C(C)OC1=O (configuration not stated),survivor count,[1],10 of 10
Cc1ccc(NC(=O)c2ccccc2)cc1[As]=[As]c1cc(NC(=O)c2ccccc2)ccc1C (configuration not stated),survivor count,"T/C endpoint: median survival time, dose: 2.5 mg/kg/injection, schedule: Q01DX009 (ip), vehicle: Klucel (hydroxypropylcellulose) (HPC), higher T/C = longer survival",10 of 10
same,survivor count,"T/C endpoint: median survival time, dose: 5.0 mg/kg/injection, schedule: Q01DX009 (ip), vehicle: Klucel (hydroxypropylcellulose) (HPC), higher T/C = longer survival",10 of 10
CC1CCCC(NC(=O)N(CCCl)N=O)C1 (configuration not stated),survivor count,"T/C endpoint: median survival time, dose: 143.0 mg/kg/injection, schedule: Q01DX001 (ip), vehicle: gum acacia, higher T/C = longer survival",5 of 10 on day 15
[N-]=[N+]=CC(=O)CCC(N)C(=O)O (configuration not stated),survivor count,"T/C endpoint: median survival time, dose: 0.3 mg/kg/injection, schedule: Q01DX009 (ip), vehicle: saline, higher T/C = longer survival",10 of 10
same,T/C,"T/C endpoint: median survival time, dose: 23.0 mg/kg/injection, schedule: Q04DX003 (ip), vehicle: saline, higher T/C = longer survival",133 % of control
same,survivor count,"T/C endpoint: median survival time, dose: 34.0 mg/kg/injection, schedule: Q04DX003 (ip), vehicle: saline, higher T/C = longer survival",10 of 10
same,survivor count,"T/C endpoint: median survival time, dose: 51.0 mg/kg/injection, schedule: Q04DX003 (ip), vehicle: saline, higher T/C = longer survival",10 of 10
same,T/C,"T/C endpoint: median survival time, dose: 140.0 mg/kg/injection, schedule: Q01DX001 (ip), vehicle: saline, higher T/C = longer survival",135 % of control
CN(C)CC(Cl)CCl (configuration not stated),survivor count,[4],7 of 10
O=[N+]([O-])c1ccc2c(N=Nc3c(O)ccc4ccccc34)c(O)cc(S(=O)(=O)O)c2c1,survivor count,"T/C endpoint: mean tumor weight, dose: 400.0 mg/kg/injection, schedule: Q01DX011 (ip), vehicle: saline, higher T/C = larger tumour",0 of 6
same,survivor count,"T/C endpoint: mean tumor weight, dose: 600.0 mg/kg/injection, schedule: Q01DX011 (ip), vehicle: saline, higher T/C = larger tumour",0 of 6
same,survivor count,[4],5 of 10
O=S(=O)(O)c1cc(O)ccc1O,T/C,"T/C endpoint: mean tumor weight, dose: 88.0 mg/kg/injection, schedule: Q01DX011 (ip), vehicle: saline, evaluated on day 12, higher T/C = larger tumour",135 % of control
same,T/C,"T/C endpoint: mean tumor weight, dose: 200.0 mg/kg/injection, schedule: Q01DX011 (ip), vehicle: saline, evaluated on day 12, higher T/C = larger tumour",140 % of control
same,survivor count,"T/C endpoint: mean tumor weight, dose: 900.0 mg/kg/injection, schedule: Q01DX011 (ip), vehicle: saline, higher T/C = larger tumour",0 of 6
Nc1nc(N)c2nc(CN(CCO)c3ccc(C(=O)NC(CCC(=O)O)C(=O)O)cc3)cnc2n1 (configuration not stated),survivor count,"T/C endpoint: median survival time, dose: 4.0 mg/kg/injection, schedule: Q01DX009 (ip), vehicle: Klucel (hydroxypropylcellulose) (HPC), higher T/C = longer survival",10 of 10
same,survivor count,"T/C endpoint: median survival time, dose: 8.0 mg/kg/injection, schedule: Q01DX009 (ip), vehicle: Klucel (hydroxypropylcellulose) (HPC), higher T/C = longer survival",10 of 10
CCN(CC)Cc1cc(Nc2c3ccccc3nc3cc(Cl)ccc23)ccc1O,T/C,"T/C endpoint: mean tumor weight, dose: 5.0 mg/kg/injection, schedule: Q01DX011 (ip), vehicle: other, evaluated on day 12, higher T/C = larger tumour",127 % of control
same,T/C,"T/C endpoint: mean tumor weight, dose: 10.0 mg/kg/injection, schedule: Q01DX011 (ip), vehicle: other, evaluated on day 12, higher T/C = larger tumour",138 % of control
same,T/C,"T/C endpoint: mean tumor weight, dose: 20.0 mg/kg/injection, schedule: Q01DX011 (ip), vehicle: other, evaluated on day 12, higher T/C = larger tumour",138 % of control

# From PubChem BioAssay AID270 (DTP/NCI, 2004)
